The other results are listed elsewhere or left out.
target: OsWRKY34 (Oryza sativa, UniProt Q0JBA9 1-250); experiment: protein-binding microarray (RPBM); PBS, 2% BSA, 51.3 ng/ul salmon testes DNA, 50 uM zinc acetate, 200 nM TF, 25 C, 1 h; high values mean tight binding; details: protein: recombinant; tags: N-terminal polyhistidine and DsRed monomer fusion (pET32a); label: CyDye5-dUTP incorporated in the synthesized complementary strand; 3' TTTTT single-stranded linker to array surface; dsDNA, one strand shown
Procedure, shortened: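 Binding signal is defined as the fluorescence intensity of each feature in arbitrary units, read on an Axon 4000B scanner. Transcription factors with N-terminal polyhistidine and DsRed fusions came from E. coli BL21-CodonPlus and were purified on Ni–NTA. They were incubated at 200 nM for 1 h at 25 °C on a custom Agilent array that had been made double-stranded with Cy5-dUTP, with 50 µM zinc acetate present, and the array was washed.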

Sequences of proteins named here, by UniProt entry; tags and fusion partners are left off.
UniProt Q0JBA9, entry or part of it: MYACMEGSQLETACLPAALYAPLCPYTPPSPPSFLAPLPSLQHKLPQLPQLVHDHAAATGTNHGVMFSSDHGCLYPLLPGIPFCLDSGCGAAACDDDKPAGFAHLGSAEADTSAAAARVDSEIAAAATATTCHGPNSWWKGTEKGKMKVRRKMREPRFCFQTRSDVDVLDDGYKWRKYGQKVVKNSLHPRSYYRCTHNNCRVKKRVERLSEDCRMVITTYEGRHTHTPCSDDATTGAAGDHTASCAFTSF

Row | Sequence | binding signal
1 | GCCTTGCTCTCTCACCGACGAGGTCACCGCCGCTTGTCTCCGGAGTCACCTAGTGCAG | 8540 fluorescence intensity (a.u.)
2 | TTTCTTTTATTTTGTCTCGTTTCATGCAGGATGGCTGGACCGGAGTCACCTAGTGCAG | 9510 fluorescence intensity (a.u.)
3 | AGGAAAACACTTAGATGGGCCGGATTACTTATCGAAATTTCGGAGTCACCTAGTGCAG | 8360 fluorescence intensity (a.u.)
4 | GTCACACATCCACGTCGCCGGCCTGCATTCGCGCCGCCCCCGGAGTCACCTAGTGCAG | 12100 fluorescence intensity (a.u.)
5 | CTCTATGTGATGGATTATTCTTTGTTGGCAAATTGTCATTCGGAGTCACCTAGTGCAG | 9260 fluorescence intensity (a.u.)
6 | CCAACTGGCCAAATTCCGGTTGCAACGCACGCATTTCCACCGGAGTCACCTAGTGCAG | 10100 fluorescence intensity (a.u.)
7 | CGTCGCCTCACCTCGCGCCTCCGCTACTACTGCTTGTCTGCGGAGTCACCTAGTGCAG | 8930 fluorescence intensity (a.u.)
8 | GGGTTTGTTATGCTGCATGTCGTCGCACGCCGAGGTGGTCCGGAGTCACCTAGTGCAG | 10100 fluorescence intensity (a.u.)
9 | TCTGTGGGAGGAGAGGCGGGCCTCACGGGTGCGGCGGGTGCGGAGTCACCTAGTGCAG | 8850 fluorescence intensity (a.u.)
10 | GCTGTTCCTTCATTTCTCACCTAACCAAAGGACCTCATCGCGGAGTCACCTAGTGCAG | 8570 fluorescence intensity (a.u.)
11 | CGCAGTTGTGCATCAGGTTCTTCACTCCATATTCTCATCGCGGAGTCACCTAGTGCAG | 8760 fluorescence intensity (a.u.)
12 | TGTTGTTTTTTTGCTAATATTTTTGTTGTTAATTTACTATCGGAGTCACCTAGTGCAG | 10200 fluorescence intensity (a.u.)
13 | TTTTCCAGGGGCGAGGGCGGGGCATGGAAGTAACCCGCGGCGGAGTCACCTAGTGCAG | 8520 fluorescence intensity (a.u.)
14 | CCTTTTCTTCGCTCTGCGGCTACCTATCTCTTGTATTTATCGGAGTCACCTAGTGCAG | 10100 ± 161 fluorescence intensity (a.u.)
15 | CAACTTTCGCCGCATGGCCGCCGGTCGCCGGGGCGGCGTCCGGAGTCACCTAGTGCAG | 8230 fluorescence intensity (a.u.)
16 | TTCCGGAGCGTCTTTTGATCGTGGTTGGGTTTGTCTGAACCGGAGTCACCTAGTGCAG | 8360 fluorescence intensity (a.u.)
17 | GTTGGATTTTATTTTTCTGGATTCGCATGGAACACTACAACGGAGTCACCTAGTGCAG | 8660 fluorescence intensity (a.u.)
18 | GGTTGTCACCTGTTCAGCTCGATGCACACTCTTGGCTGAGCGGAGTCACCTAGTGCAG | 8760 fluorescence intensity (a.u.)
19 | TTTTCCATTCCCATTAGCCAAACACTCCTTTATCTTTCATCGGAGTCACCTAGTGCAG | 12400 fluorescence intensity (a.u.)
20 | GCTCTTTCTGTTGTGTGTTGTGATCTTTGTGGTTGCTTCACGGAGTCACCTAGTGCAG | 8360 fluorescence intensity (a.u.)
21 | TAGTGCTACCCAACCTGATCTCGCCTCAACCCCTACATATCGGAGTCACCTAGTGCAG | 8860 fluorescence intensity (a.u.)

Nos. 7–8 from above:
Row | Sequence | binding signal
7 | CGTCGCCTCACCTCGCGCCTCCGCTACTACTGCTTGTCTGCGGAGTCACCTAGTGCAG | 8930 fluorescence intensity (a.u.)
8 | GGGTTTGTTATGCTGCATGTCGTCGCACGCCGAGGTGGTCCGGAGTCACCTAGTGCAG | 10100 fluorescence intensity (a.u.)

Going on with the list:

Row | Sequence | binding signal
22 | GGGATGCTCGTAGCCAGCGGTGCTCAGGGAGGTGGAGGGGCGGAGTCACCTAGTGCAG | 12800 fluorescence intensity (a.u.)
23 | AACCGTTTCCACCCTGTAAACATTAGGTATGTTGCCCTCACGGAGTCACCTAGTGCAG | 8140 fluorescence intensity (a.u.)
24 | GCCCTTAACGCGATCATGTAACAATGTATCTAAGCCTATACGGAGTCACCTAGTGCAG | 8200 fluorescence intensity (a.u.)
25 | ACTGACCCACCGCCCCAAGCAGGCGCTCCTAGATCTTCCACGGAGTCACCTAGTGCAG | 8680 fluorescence intensity (a.u.)
26 | CAGGCATATTCGGATCTTTTCTCGCGTTGACCCTGATTATCGGAGTCACCTAGTGCAG | 13400 fluorescence intensity (a.u.)
27 | TTTTCCGTCATATCGTTCTAATTTCTTCAAATTTTCATTTCGGAGTCACCTAGTGCAG | 8600 fluorescence intensity (a.u.)
28 | CCCGCCACCGCGCAGCCGCCCGACGCCGTCGCCGCTCGTCCGGAGTCACCTAGTGCAG | 8430 fluorescence intensity (a.u.)
29 | AGGGGAGGGGCAGGGAGTTTAATTGGGACTTGGAAGGAGGCGGAGTCACCTAGTGCAG | 10300 fluorescence intensity (a.u.)
30 | TCGCGTCCTCCACACCAACTTTATTGCGCCCTCCACACCACGGAGTCACCTAGTGCAG | 9170 fluorescence intensity (a.u.)
31 | TTAATACTTTATGCGTGACTTATCTTTTTAATTTTTTTCACGGAGTCACCTAGTGCAG | 9760 fluorescence intensity (a.u.)
32 | CTCCCCGCCACACCGACACCCTGCGCAGTTGCGCCGCCGCCGGAGTCACCTAGTGCAG | 8590 fluorescence intensity (a.u.)
33 | CTCTACTTCCAATCTCATCTCTTTTCTTTTTTTTTCTCTTCGGAGTCACCTAGTGCAG | 8560 fluorescence intensity (a.u.)
34 | GCCTGTGGTTTTTTTCCGCAAGGGTTTTTCACGTTAAATTCGGAGTCACCTAGTGCAG | 8620 fluorescence intensity (a.u.)
35 | ACGACCCAACCAATCGACTCGCACCACCACCAGCAGCTCACGGAGTCACCTAGTGCAG | 8600 fluorescence intensity (a.u.)
36 | AATGTTGTCCTGTCGGCTGCTTCTGCTCCAACGTCAAGTTCGGAGTCACCTAGTGCAG | 8140 fluorescence intensity (a.u.)
37 | GTCCTTCCGTTATCTGCAAATACATCCTATCTTAAGCTTTCGGAGTCACCTAGTGCAG | 8400 fluorescence intensity (a.u.)
38 | CACGCACATTTCTTTACTCGCCCGGAGAAGCTACCGCGCGCGGAGTCACCTAGTGCAG | 10300 fluorescence intensity (a.u.)
39 | CCAATTCACTCCACCATACTGTTGGCACCTATGATAGAACCGGAGTCACCTAGTGCAG | 8180 fluorescence intensity (a.u.)
40 | AGCCCTCAGAACCTTCTCTTTCTTGTTCTTCTCTTCTTCCCGGAGTCACCTAGTGCAG | 8720 fluorescence intensity (a.u.)
41 | ATAGAGTTAGTCAAACTTAAAGTAGTTTGACTTGACTAAACGGAGTCACCTAGTGCAG | 9560 fluorescence intensity (a.u.)
42 | GGTTTTTTTCGTCCACATTTAATGCTGCATACATATGTCTCGGAGTCACCTAGTGCAG | 8760 fluorescence intensity (a.u.)
